Experimental data published in patent US10647687B2, “Spiropyrazine derivatives as inhibitors of non-apoptotic regulated cell-death” (Helmholtz Zentrum München Deutsches Forschungszentrum für …, priority 2014, dated 2020).

test system: Pfa1 cells; experiment: Cellular toxicity, Pfa1 cells without TAM (Example B.5); assay type: cell-based, mouse; details: TC50 divided by the IC50 of Example B.4
Description: An estimate of the toxicity for compounds disclosed herein was obtained by using the same assay as described in Example B.4, but without the addition of TAM. […] Such TC50 values obtained for certain compounds disclosed herein, together with an approximate therapeutic window (estimated by dividing each TC50 by the corresponding IC50 determined from example B.4) are shown in Table 3 and Table 4.

| Structure (SMILES) | Therapeutic Window (approx. fold) |
| --- | --- |
| c1ccc2c(c1)CCC2NC1=Nc2ccccc2NC12CCCCC2 [D-2] | >100 fold |
| c1ccc2c(c1)CCC2NC1=Nc2ccccc2NC12CCOCC2 [D-3] | >50 fold |
| c1ccc2c(c1)CCCC2NC1=Nc2ccccc2NC12CCCCC2 [D-4] | >100 fold |
| c1ccc2c(c1)CCC2NC1=Nc2ccccc2NC12CCNCC2 [D-5] | >200 fold |
| c1ccc2c(c1)N=C(NCCc1c[nH]c3ccccc13)C1(CCNCC1)N2 [D-6] | >100 fold |
| c1ccc2c(c1)CCCC2NC1=Nc2ccccc2NC12CCNCC2 [D-7] | >100 fold |
| Clc1cccc(CNC2=Nc3ccccc3NC23CC2CCC(C3)N2)c1 [D-8] | >100 fold |
| c1ccc(CNC2=Nc3ccccc3NC23CC2CCC(C3)N2)cc1 [D-9] | >20 fold |
| Clc1cccc(CNC2=Nc3ncccc3NC23CCCCC3)c1 [D-10] | >5 fold |
| Clc1cccc(CNC2=Nc3cc(Cl)ncc3NC23CCCCC3)c1 [D-11] | >5 fold |
| c1csc(CNC2=Nc3ccccc3NC23CCCCC3)c1 [D-12] | >10 fold |
| c1cncc(CNC2=Nc3ccccc3NC23CCCCC3)c1 [D-13] | >20 fold |
| Cc1cc(CNC2=Nc3ccccc3NC23CCCCC3)on1 [D-17] | >25* fold |
| Clc1cc2c(cc1Cl)NC1(CCCCC1)C(NCc1cccnc1)=N2 [D-19] | >100 fold |
| c1ccc2c(c1)N=C(NCc1nccs1)C1(CCCCC1)N2 [D-20] | >25* fold |
| Clc1cc2c(cc1Cl)NC1(CCCCC1)C(NCc1cccs1)=N2 [D-21] | >20 fold |
| c1ccc2c(c1)N=C(NCc1cncs1)C1(CCCCC1)N2 [D-22] | >20* fold |
| c1coc(CNC2=Nc3ccccc3NC23CCCCC3)c1 [D-23] | >25* fold |
| c1ccc2c(c1)N=C(NCc1ccncc1)C1(CCCCC1)N2 [D-24] | >25* fold |
| c1csc(CNC2=Nc3ccccc3NC23CCNCC3)c1 [D-181] | >100 fold |
| CN1CCC2(CC1)Nc1cc(Cl)c(Cl)cc1N=C2NCc1cccc(Cl)c1 [F-24] | >100 fold |
| C#CCCCCCCCCC(=O)N1CCC2(CC1)Nc1ccccc1N=C2NCc1cccc(Cl)c1 [F-25] | >50 fold |

same assay, conditions: TC50 divided by the corresponding IC50 from example B.4 (Pfa1/TAM)

| Structure (SMILES) | Therapeutic Window (approx.. fold) |
| --- | --- |
| Clc1ccccc1CNC1=Nc2ccccc2NC12CCCCC2 [C-1] | >100 fold |
| Clc1cccc(CNC2=Nc3ccccc3NC23CCCCC3)c1 [C-2] | >100 fold |
| Clc1ccc(CNC2=Nc3ccccc3NC23CCCCC3)cc1 [C-3] | >200 fold |
| Fc1cccc(CNC2=Nc3ccccc3NC23CCCCC3)c1 [C-5] | >50 fold |
| Cc1cccc(CNC2=Nc3ccccc3NC23CCCCC3)c1 [C-11] | >20 fold |
| FC(F)(F)c1cccc(CNC2=Nc3ccccc3NC23CCCCC3)c1 [C-23] | >100 fold |
| COc1cccc(CNC2=Nc3ccccc3NC23CCCCC3)c1 [C-47] | >50 fold |
| Fc1cc(Cl)ccc1CNC1=Nc2ccccc2NC12CCCCC2 [C-61] | >100 fold |
| Clc1cccc(CCNC2=Nc3ccccc3NC23CCCCC3)c1 [C-79] | >10 fold |
| CC1CCC2(CC1)Nc1ccccc1N=C2NCc1ccccc1Cl (centres unmarked) [C-91] | >100 fold |
| CC(=O)NC1CCC2(CC1)Nc1ccccc1N=C2NCc1cccc(Cl)c1 (centres unmarked) [C-111] | >10 fold |
| Fc1cc2c(cc1F)NC1(CCCCC1)C(NCc1cccc(Cl)c1)=N2 [C-137] | >100 fold |
| Clc1ccccc1CNC1=Nc2ccccc2NC12CCCCCC2 [C-205] | >200 fold |
| Clc1cccc(CNC2=Nc3ccccc3NC23CCCCCCC3)c1 [C-206] | >10 fold |
| c1ccc(CNC2=Nc3ccccc3NC23CCCCCC3)cc1 [C-214] | >20 fold |
| c1ccc(CNC2=Nc3ccccc3NC23CCCCC3)cc1 [C-215] | >50 fold |
| Clc1cccc(CNC2=Nc3ccccc3NC23CCCCCC3)c1 [C-216] | >100 fold |
| Clc1cc2c(cc1Cl)NC1(CCCCC1)C(NCc1ccccc1)=N2 [C-217] | >500 fold |
| Cc1cc2c(cc1C)NC1(CCCCC1)C(NCc1ccccc1)=N2 [C-218] | >200 fold |
| c1ccc(CNC2=Nc3ccccc3NC23CCCC3)cc1 [C-219] | >20 fold |
| Clc1ccc(CNC2=Nc3ccccc3NC23CCCCCC3)cc1 [C-220] | >50 fold |
| c1ccc(CCCNC2=Nc3ccccc3NC23CCCCC3)cc1 [C-221] | >10 fold |

| Structure (SMILES) | Therapeutic Window (approx.. fold) |
| --- | --- |
| Fc1cccc(F)c1CNC1=Nc2ccccc2NC12CCCCC2 [C-222] | >200 fold |
| c1ccc(CNC2=Nc3cc4c(cc3NC23CCCCC3)OCCO4)cc1 [C-223] | >200 fold |
| COc1cccc(CNC2=Nc3ccccc3NC23CCCCCC3)c1 [C-224] | >50 fold |
| Cc1cc(C)cc(CNC2=Nc3ccccc3NC23CCCCC3)c1 [C-225] | >20 fold |
| c1ccc(CCNC2=Nc3ccccc3NC23CCCCC3)cc1 [C-226] | >10 fold |
| Clc1cccc(CNC2=Nc3cc4c(cc3NC23CCCCC3)OCCO4)c1 [C-227] | >1000 fold |
| Clc1ccc(CNC2=Nc3ccccc3NC23CCCCC3)cc1Cl [C-228] | >500 fold |
| c1ccc(C(CNC2=Nc3ccccc3NC23CCCCC3)c2ccccc2)cc1 [C-229] | >10 fold |
| Clc1ccc(CNC2=Nc3ccccc3NC23CCCCC3)c(Cl)c1 [C-230] | >200 fold |
| Fc1ccc(CNC2=Nc3ccccc3NC23CCCCC3)c(F)c1 [C-231] | >50 fold |
| c1ccc(CCCCNC2=Nc3ccccc3NC23CCCCC3)cc1 [C-232] | >20 fold |
| CC(CCc1ccccc1)NC1=Nc2ccccc2NC12CCCCC2 (centres unmarked) [C-233] | >20 fold |
| Clc1cccc(CNC2=Nc3cc(Cl)c(Cl)cc3NC23CCCCCC3)c1 [C-234] | >100 fold |
| Clc1cc2c(cc1Cl)NC1(CCCCCC1)C(NCc1ccccc1)=N2 [C-235] | >50 fold |
| c1ccc(CNC2=Nc3ccccc3NC23CCCCCCC3)cc1 [C-236] | >50 fold |
| Clc1cc2c(cc1Cl)NC1(CCCCCCC1)C(NCc1ccccc1)=N2 [C-237] | >50 fold |
| Fc1cc2c(cc1F)NC1(CCCCC1)C(NCc1ccccc1)=N2 [C-238] | >100 fold |
| Cc1cc2c(cc1C)NC1(CCCCCC1)C(NCc1ccccc1)=N2 [C-239] | >50 fold |
| Fc1cccc(F)c1CNC1=Nc2cc(Cl)c(Cl)cc2NC12CCCCC2 [C-240] | >20 fold |
| Cc1cc2c(cc1C)NC1(CCCCCCC1)C(NCc1ccccc1)=N2 [C-241] | >20 fold |
| Fc1ccc(CNC2=Nc3ccccc3NC23CCCCCC3)c(F)c1 [C-242] | >10 fold |
| Clc1cc2c(cc1Cl)NC1(CCCCCC1)C(NCc1ccccc1Cl)=N2 [C-243] | >20 fold |

| Structure (SMILES) | Therapeutic Window (approx.. fold) |
| --- | --- |
| CC(NC1=Nc2ccccc2NC12CCCCC2)c1ccccc1 (centres unmarked) [C-244] | >10 fold |
| CC(=O)NC1CCC2(CC1)Nc1ccccc1N=C2NCc1ccccc1 (centres unmarked) [C-249] | >20 fold |
| CC1CCC2(CC1)Nc1ccccc1N=C2NCc1ccccc1 (centres unmarked) [C-252] | >10 fold |
| CC1(C)CCC2(CC1)Nc1ccccc1N=C2NCc1ccccc1 [C-253] | >10 fold |
| FC(F)(F)c1cccc2c1N=C(NCc1ccccc1)C1(CCCCC1)N2 [C-254] | >20 fold |
| Cc1cc2c(cc1C)NC1(CCCCCC1)C(NCc1cccc(Cl)c1)=N2 [C-255] | >50 fold |
| FC1(F)Oc2cc3c(cc2O1)NC1(CCCCC1)C(NCc1ccccc1)=N3 [C-256] | >200 fold |
| NC1CCC2(CC1)Nc1ccccc1N=C2NCc1ccccc1 (centres unmarked) [C-257] | >20 fold |
| Clc1ccc2c(c1)N=C(NCc1ccccc1)C1(CCCCC1)N2 [C-258] | >50 fold |
| FC(F)(F)c1ccc2c(c1)N=C(NCc1ccccc1)C1(CCCCC1)N2 [C-259] | >20 fold |
| FC(F)(F)c1cccc(CNC2=Nc3cc(Cl)c(Cl)cc3NC23CCCCCC3)c1 [C-260] | >50 fold |
| FC(F)(F)c1cccc(CNC2=Nc3ccccc3NC23CCCCCC3)c1 [C-261] | >20 fold |
| Cc1cc(C)cc(CNC2=Nc3cc(Cl)c(Cl)cc3NC23CCCCCC3)c1 [C-262] | >20 fold |
| Cc1cccc2c1NC1(CCCCC1)C(NCc1ccccc1)=N2 [C-263] | >20 fold |
| FC(F)(F)c1cccc(CNC2=Nc3cc(Cl)c(Cl)cc3NC23CCCCC3)c1 [C-264] | >20 fold |
| Fc1ccc(CNC2=Nc3cc(Cl)c(Cl)cc3NC23CCCCC3)c(F)c1 [C-265] | >50 fold |
| Fc1cccc(F)c1CNC1=Nc2ccccc2NC12CCCCCC2 [C-266] | >20 fold |
| Cc1cccc(CNC2=Nc3cc(Cl)c(Cl)cc3NC23CCCCCC3)c1 [C-267] | >50 fold |
| Cc1cccc(CNC2=Nc3cc(Cl)c(Cl)cc3NC23CCCCC3)c1 [C-268] | >100 fold |
| CC(C)(C)c1ccc(CNC2=Nc3ccccc3NC23CCCCC3)cc1 [C-269] | >20 fold |

No dose or concentration is given here for some results. Marks after values point to notes of the source that are not given here.
